Read-outs that look alike come from different tables or passages of the source. Results are given in words; binding and its absence hold for the method and conditions named. In cells and extracts the contact can be indirect. Some results given as binding are weak or reduced against the parent protein; the word gives no strength.

By UniProt entry, the sequences of proteins in these tests, tags left out.
UniProt O00327: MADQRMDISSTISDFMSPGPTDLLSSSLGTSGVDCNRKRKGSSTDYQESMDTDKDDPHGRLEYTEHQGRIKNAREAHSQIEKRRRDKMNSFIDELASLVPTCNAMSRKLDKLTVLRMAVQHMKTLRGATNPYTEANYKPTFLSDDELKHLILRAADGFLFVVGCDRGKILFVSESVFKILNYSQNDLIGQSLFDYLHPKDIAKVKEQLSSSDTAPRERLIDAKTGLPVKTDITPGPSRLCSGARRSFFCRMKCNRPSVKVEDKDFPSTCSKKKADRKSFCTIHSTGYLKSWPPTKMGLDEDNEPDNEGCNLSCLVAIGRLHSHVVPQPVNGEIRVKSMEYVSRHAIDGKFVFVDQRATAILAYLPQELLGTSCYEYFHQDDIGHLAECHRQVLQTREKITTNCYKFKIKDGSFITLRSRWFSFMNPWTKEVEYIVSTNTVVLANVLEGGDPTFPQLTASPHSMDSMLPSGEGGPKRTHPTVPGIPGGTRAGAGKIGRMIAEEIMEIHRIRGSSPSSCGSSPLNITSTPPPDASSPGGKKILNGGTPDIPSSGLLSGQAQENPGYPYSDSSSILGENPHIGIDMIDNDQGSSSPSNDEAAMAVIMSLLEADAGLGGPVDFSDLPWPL
UniProt P49841: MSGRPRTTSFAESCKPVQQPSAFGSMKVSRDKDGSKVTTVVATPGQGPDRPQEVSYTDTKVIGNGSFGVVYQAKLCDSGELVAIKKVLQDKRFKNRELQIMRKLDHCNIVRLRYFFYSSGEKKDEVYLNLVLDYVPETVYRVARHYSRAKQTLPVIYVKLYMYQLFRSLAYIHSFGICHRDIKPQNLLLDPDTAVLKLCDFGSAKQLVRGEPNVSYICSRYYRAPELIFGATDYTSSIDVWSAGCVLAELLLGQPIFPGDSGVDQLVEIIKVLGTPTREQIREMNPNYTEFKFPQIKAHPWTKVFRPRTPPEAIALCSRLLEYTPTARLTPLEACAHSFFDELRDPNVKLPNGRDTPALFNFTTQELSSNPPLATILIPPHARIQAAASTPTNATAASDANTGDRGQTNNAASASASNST
UniProt Q9WV60: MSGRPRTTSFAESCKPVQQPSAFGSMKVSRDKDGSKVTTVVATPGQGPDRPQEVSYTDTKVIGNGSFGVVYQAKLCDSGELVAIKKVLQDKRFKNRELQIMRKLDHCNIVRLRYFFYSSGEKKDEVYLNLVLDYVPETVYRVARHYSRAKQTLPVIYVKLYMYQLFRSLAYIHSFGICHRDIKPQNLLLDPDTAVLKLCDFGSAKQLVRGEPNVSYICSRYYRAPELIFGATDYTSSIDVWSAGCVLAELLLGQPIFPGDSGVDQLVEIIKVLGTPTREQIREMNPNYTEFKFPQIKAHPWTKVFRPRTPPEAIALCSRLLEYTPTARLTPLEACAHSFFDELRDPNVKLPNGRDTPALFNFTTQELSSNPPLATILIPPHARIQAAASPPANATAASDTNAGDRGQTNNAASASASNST
UniProt Q8TC59: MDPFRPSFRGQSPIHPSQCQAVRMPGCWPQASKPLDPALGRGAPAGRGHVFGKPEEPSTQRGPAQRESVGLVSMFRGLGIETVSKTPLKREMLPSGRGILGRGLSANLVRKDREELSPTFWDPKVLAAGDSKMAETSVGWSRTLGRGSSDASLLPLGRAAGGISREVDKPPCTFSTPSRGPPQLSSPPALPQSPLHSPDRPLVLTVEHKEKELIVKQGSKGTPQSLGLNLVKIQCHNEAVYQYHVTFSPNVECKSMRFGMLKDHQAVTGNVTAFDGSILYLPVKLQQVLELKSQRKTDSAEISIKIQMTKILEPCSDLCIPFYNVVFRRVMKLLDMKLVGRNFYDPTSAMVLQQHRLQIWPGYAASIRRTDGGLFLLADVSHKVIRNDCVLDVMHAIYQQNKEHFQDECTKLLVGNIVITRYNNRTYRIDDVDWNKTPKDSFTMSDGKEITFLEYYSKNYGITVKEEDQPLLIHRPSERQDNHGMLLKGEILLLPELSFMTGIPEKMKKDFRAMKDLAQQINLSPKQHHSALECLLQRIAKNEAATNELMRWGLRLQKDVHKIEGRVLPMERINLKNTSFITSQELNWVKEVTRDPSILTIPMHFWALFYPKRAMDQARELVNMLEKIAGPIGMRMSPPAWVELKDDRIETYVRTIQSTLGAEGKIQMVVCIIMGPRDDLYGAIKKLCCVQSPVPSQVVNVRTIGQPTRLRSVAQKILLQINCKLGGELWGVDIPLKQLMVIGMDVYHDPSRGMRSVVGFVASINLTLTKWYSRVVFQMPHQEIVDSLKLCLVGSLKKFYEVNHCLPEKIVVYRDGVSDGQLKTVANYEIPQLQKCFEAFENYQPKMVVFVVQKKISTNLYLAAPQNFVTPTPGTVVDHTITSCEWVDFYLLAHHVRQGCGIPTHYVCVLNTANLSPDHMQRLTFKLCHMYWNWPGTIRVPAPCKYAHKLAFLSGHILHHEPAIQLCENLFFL
UniProt Q9WTL8: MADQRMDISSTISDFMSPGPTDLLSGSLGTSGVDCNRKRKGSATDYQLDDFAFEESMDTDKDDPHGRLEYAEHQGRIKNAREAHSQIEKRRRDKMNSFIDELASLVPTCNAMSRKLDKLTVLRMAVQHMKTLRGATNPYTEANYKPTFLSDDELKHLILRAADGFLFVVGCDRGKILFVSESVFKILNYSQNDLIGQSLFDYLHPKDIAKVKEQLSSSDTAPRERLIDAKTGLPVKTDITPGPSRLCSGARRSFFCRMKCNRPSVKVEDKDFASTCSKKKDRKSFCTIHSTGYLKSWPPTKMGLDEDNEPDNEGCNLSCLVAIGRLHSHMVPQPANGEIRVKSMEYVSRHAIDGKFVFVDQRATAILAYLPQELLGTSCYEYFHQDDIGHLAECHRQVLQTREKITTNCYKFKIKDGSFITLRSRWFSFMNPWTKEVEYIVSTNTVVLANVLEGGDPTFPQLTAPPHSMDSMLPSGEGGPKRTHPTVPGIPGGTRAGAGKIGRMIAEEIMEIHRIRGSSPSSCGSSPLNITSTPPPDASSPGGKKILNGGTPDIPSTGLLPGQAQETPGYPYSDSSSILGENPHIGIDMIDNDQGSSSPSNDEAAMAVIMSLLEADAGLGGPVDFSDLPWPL

Test [1] deals with BMAL1 (endogenous in HeLa cells) (human (endogenous in HeLa)) (UniProt O00327). Kind of test: co-IP; immunoprecipitation from HeLa lysate, endogenous proteins; 0.8 μg antibody 2 h at 4°C, protein G&A agarose overnight, four washes in ice-cold PBS pH 7.4.
Test [2] concerns the target T1, CLOCK (endogenous in HeLa cells) (human (endogenous in HeLa)) (UniProt O15516).
T1 sequence: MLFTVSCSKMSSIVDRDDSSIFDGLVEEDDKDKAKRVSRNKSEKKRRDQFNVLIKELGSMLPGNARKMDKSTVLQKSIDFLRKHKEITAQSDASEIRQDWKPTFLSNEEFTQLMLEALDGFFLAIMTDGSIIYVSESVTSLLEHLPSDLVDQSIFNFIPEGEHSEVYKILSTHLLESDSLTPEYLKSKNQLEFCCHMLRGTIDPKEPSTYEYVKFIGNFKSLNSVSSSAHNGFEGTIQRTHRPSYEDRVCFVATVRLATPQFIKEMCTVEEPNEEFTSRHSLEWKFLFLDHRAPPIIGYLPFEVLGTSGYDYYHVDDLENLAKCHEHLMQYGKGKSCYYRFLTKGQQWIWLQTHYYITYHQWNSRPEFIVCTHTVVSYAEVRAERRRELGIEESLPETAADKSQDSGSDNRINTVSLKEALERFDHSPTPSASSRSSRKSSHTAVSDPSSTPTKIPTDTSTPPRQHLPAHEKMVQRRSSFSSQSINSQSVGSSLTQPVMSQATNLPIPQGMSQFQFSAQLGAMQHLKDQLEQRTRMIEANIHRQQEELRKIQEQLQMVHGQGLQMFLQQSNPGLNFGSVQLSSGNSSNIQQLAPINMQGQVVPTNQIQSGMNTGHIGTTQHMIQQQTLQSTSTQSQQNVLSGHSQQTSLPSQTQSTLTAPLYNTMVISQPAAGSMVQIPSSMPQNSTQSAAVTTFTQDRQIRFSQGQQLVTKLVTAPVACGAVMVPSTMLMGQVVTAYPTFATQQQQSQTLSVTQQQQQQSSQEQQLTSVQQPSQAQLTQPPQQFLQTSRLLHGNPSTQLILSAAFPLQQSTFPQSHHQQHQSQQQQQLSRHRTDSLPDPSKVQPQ
The description is as above.

Test [3] concerns the target glycogen synthase kinase 3 beta (endogenous in HeLa cells) (human (endogenous in HeLa)) (UniProt P49841). In words: co-IP; immunoprecipitation from HeLa lysate, with and without overexpression of PIWIL2 (Figure 3H).
Test [4] has as its target glycogen synthase kinase 3 beta (mouse) (mouse (endogenous in GC-1 and GC-2)) (UniProt Q9WV60). Kind of test: co-IP; immunoprecipitation from lysates of GC-1 and GC-2 cells, control and stable Piwil2 knock-down; anti-GSK3β for GSK3β with BMAL1/CLOCK.
Test [5] shares this target. The description is as above. This is another data set of the same source.

Take “PIWIL2 (endogenous in HeLa cells) (from UniProt Q8TC59 1-973)”: the binding result in test [1] and in test [2] was “binds” each time. Turning to “BMAL1 (endogenous in HeLa cells) (from UniProt O00327 1-626)”, in test [3], the binding entry was “binds”. In the case of “BMAL1 (mouse) (from UniProt Q9WTL8 1-632)”, the binding entry in test [4] was “binds”.

B1: CLOCK (mouse) (protein, UniProt O08785 1-855)
chain: MVFTVSCSKMSSIVDRDDSSIFDGLVEEDDKDKAKRVSRNKSEKKRRDQFNVLIKELGSMLPGNARKMDKSTVLQKSIDFLRKHKETTAQSDASEIRQDWKPTFLSNEEFTQLMLEALDGFFLAIMTDGSIIYVSESVTSLLEHLPSDLVDQSIFNFIPEGEHSEVYKILSTHLLESDSLTPEYLKSKNQLEFCCHMLRGTIDPKEPSTYEYVRFIGNFKSLTSVSTSTHNGFEGTIQRTHRPSYEDRVCFVATVRLATPQFIKEMCTVEEPNEEFTSRHSLEWKFLFLDHRAPPIIGYLPFEVLGTSGYDYYHVDDLENLAKCHEHLMQYGKGKSCYYRFLTKGQQWIWLQTHYYITYHQWNSRPEFIVCTHTVVSYAEVRAERRRELGIEESLPETAADKSQDSGSDNRINTVSLKEALERFDHSPTPSASSRSSRKSSHTAVSDPSSTPTKIPTDTSTPPRQHLPAHEKMTQRRSSFSSQSINSQSVGPSLTQPAMSQAANLPIPQGMSQFQFSAQLGAMQHLKDQLEQRTRMIEANIHRQQEELRKIQEQLQMVHGQGLQMFLQQSNPGLNFGSVQLSSGNSNIQQLTPVNMQGQVVPANQVQSGHISTGQHMIQQQTLQSTSTQQSQQSVMSGHSQQTSLPSQTPSTLTAPLYNTMVISQPAAGSMVQIPSSMPQNSTQSATVTTFTQDRQIRFSQGQQLVTKLVTAPVACGAVMVPSTMLMGQVVTAYPTFATQQQQAQTLSVTQQQQQQQQQPPQQQQQQQQSSQEQQLPSVQQPAQAQLGQPPQQFLQTSRLLHGNPSTQLILSAAFPLQQSTFPPSHHQQHQPQQQQQLPRHRTDSLTDPSKVQPQ
Turning to B1, the binding result in test [5] is reported as “binds”.

Values taken from article PMC5589630.
